Results deposited as PubChem BioAssay AID504764 (Drosophila RNAi Screening Center, 2011)

Purpose: 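Genome-wide screen for regulators of Notch-driven gene expression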 (primary screen)
Cell system: Drosophila Kc167 cells
Reagent: long dsRNA against Drosophila genes
Duration: about 5 days (4 days dsRNA, then 24 h after transfection)
Treatment: transfection of constitutively active membrane-tethered Notch lacking the extracellular domain, read 24 h later
Measured: 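Light from a Notch-responsive E(spl)m3 luciferase reporter under active Notch, with control-promoter and no-Notch reporter wells to normalise; raw counts from paired wells a and b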
Direction: induced reporter light, run 1, well a and induced reporter light, run 1, well b: higher = more light from the Notch target reporter with active Notch; control promoter light, run 1, well a and control promoter light, run 1, well b: higher = more light from the viral control promoter (cell number, transfection, viability); uninduced reporter light, run 1, well a: higher = more light from the Notch target reporter without active Notch
Rule for the call: 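Hit if the duplicate-averaged log2 ratio of induced to control-promoter light gives a plate-wise z beyond ±2, or induced to uninduced beyond ±1.8; weak-control or discordant-duplicate wells dropped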
Meaning of the calls: active = modifier hit (raised or lowered Notch signal); inactive = not a hit
The screen tested about 22,000 reagents; this is a random part of those with a known target gene and a result. Of all reagents, 403 (1.9%) were called active. 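Unnormalised raw counts per well; ratio z-scores behind the hit calls and whether each hit raises or lowers signal are not deposited.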 Reagents against one gene are numbered here. Not given: the amount of reagent.

sau (sauron) → induced reporter light, run 1, well a = 1.64e5; induced reporter light, run 1, well b = 1.58e5; control promoter light, run 1, well a = 1.75e5; control promoter light, run 1, well b = 1.80e5; uninduced reporter light, run 1, well a = 21030; call = active
Cpr65Aw (Cuticular protein 65Aw) → induced reporter light, run 1, well a = 2.47e5; induced reporter light, run 1, well b = 2.46e5; control promoter light, run 1, well a = 3.13e5; control promoter light, run 1, well b = 2.65e5; uninduced reporter light, run 1, well a = 17590; call = inactive
CG9500 → induced reporter light, run 1, well a = 1.59e5; induced reporter light, run 1, well b = 1.35e5; control promoter light, run 1, well a = 1.60e5; control promoter light, run 1, well b = 1.78e5; uninduced reporter light, run 1, well a = 8495; call = inactive
CG8379 → induced reporter light, run 1, well a = 83760; induced reporter light, run 1, well b = 87985; control promoter light, run 1, well a = 97390; control promoter light, run 1, well b = 74380; uninduced reporter light, run 1, well a = 6140; call = inactive
Ada2b (transcriptional Adaptor 2b) → induced reporter light, run 1, well a = 1.30e5; induced reporter light, run 1, well b = 1.14e5; control promoter light, run 1, well a = 1.18e5; control promoter light, run 1, well b = 1.18e5; uninduced reporter light, run 1, well a = 9600; call = inactive
foxo (forkhead box, sub-group O) #1 → induced reporter light, run 1, well a = 1895; induced reporter light, run 1, well b = 1555; control promoter light, run 1, well a = 1635; control promoter light, run 1, well b = 1655; uninduced reporter light, run 1, well a = 1725; call = inactive
foxo (forkhead box, sub-group O) #2 → induced reporter light, run 1, well a = 1.72e5; induced reporter light, run 1, well b = 1.71e5; control promoter light, run 1, well a = 74720; control promoter light, run 1, well b = 72285; uninduced reporter light, run 1, well a = 14240; call = inactive
CG12848 → induced reporter light, run 1, well a = 2.42e5; induced reporter light, run 1, well b = 2.40e5; control promoter light, run 1, well a = 2.09e5; control promoter light, run 1, well b = 1.92e5; uninduced reporter light, run 1, well a = 17145; call = inactive
GABA-B-R1 (metabotropic GABA-B receptor subtype 1) → call = inactive
CG1316 → induced reporter light, run 1, well a = 67145; induced reporter light, run 1, well b = 1.06e5; control promoter light, run 1, well a = 1.07e5; control promoter light, run 1, well b = 1.04e5; uninduced reporter light, run 1, well a = 5038; call = inactive
Ostgamma (Oligosaccharide transferase gamma subunit) → induced reporter light, run 1, well a = 87710; induced reporter light, run 1, well b = 1.07e5; control promoter light, run 1, well a = 89960; control promoter light, run 1, well b = 91650; uninduced reporter light, run 1, well a = 5430; call = inactive
unc-13 #1 → induced reporter light, run 1, well a = 60580; induced reporter light, run 1, well b = 63820; control promoter light, run 1, well a = 83905; control promoter light, run 1, well b = 90570; uninduced reporter light, run 1, well a = 5665; call = inactive
unc-13 #2 → induced reporter light, run 1, well a = 65300; induced reporter light, run 1, well b = 60105; control promoter light, run 1, well a = 92185; control promoter light, run 1, well b = 87415; uninduced reporter light, run 1, well a = 4845; call = inactive
unc-13 #3 → induced reporter light, run 1, well a = 1.78e5; induced reporter light, run 1, well b = 1.60e5; control promoter light, run 1, well a = 2.19e5; control promoter light, run 1, well b = 2.02e5; uninduced reporter light, run 1, well a = 14470; call = inactive
spas (spastin) → induced reporter light, run 1, well a = 2.05e5; induced reporter light, run 1, well b = 1.98e5; control promoter light, run 1, well a = 3.04e5; control promoter light, run 1, well b = 2.90e5; uninduced reporter light, run 1, well a = 20360; call = inactive
Gbp3 (Growth-blocking peptide 3) → induced reporter light, run 1, well a = 1.97e5; induced reporter light, run 1, well b = 1.45e5; control promoter light, run 1, well a = 2.07e5; control promoter light, run 1, well b = 2.07e5; uninduced reporter light, run 1, well a = 13665; call = inactive
CG32846 → induced reporter light, run 1, well a = 1.74e5; induced reporter light, run 1, well b = 1.88e5; control promoter light, run 1, well a = 1.96e5; control promoter light, run 1, well b = 1.97e5; uninduced reporter light, run 1, well a = 13920; call = inactive
TwdlS (TweedleS) → induced reporter light, run 1, well a = 1.35e5; induced reporter light, run 1, well b = 98935; control promoter light, run 1, well a = 1.56e5; control promoter light, run 1, well b = 1.53e5; uninduced reporter light, run 1, well a = 12025; call = inactive
Cht9 (Chitinase 9) → induced reporter light, run 1, well a = 1.81e5; induced reporter light, run 1, well b = 1.83e5; control promoter light, run 1, well a = 1.69e5; control promoter light, run 1, well b = 1.82e5; uninduced reporter light, run 1, well a = 13415; call = inactive
ND-B16.6 (NADH dehydrogenase (ubiquinone) B16.6 subunit) → induced reporter light, run 1, well a = 1.69e5; induced reporter light, run 1, well b = 1.73e5; control promoter light, run 1, well a = 2.49e5; control promoter light, run 1, well b = 2.76e5; uninduced reporter light, run 1, well a = 11310; call = inactive
CycB3 (Cyclin B3) → induced reporter light, run 1, well a = 1.42e5; induced reporter light, run 1, well b = 1.27e5; control promoter light, run 1, well a = 1.59e5; control promoter light, run 1, well b = 1.39e5; uninduced reporter light, run 1, well a = 9810; call = inactive
sqd (squid) #1 → induced reporter light, run 1, well a = 2.17e5; induced reporter light, run 1, well b = 2.45e5; control promoter light, run 1, well a = 2.30e5; control promoter light, run 1, well b = 2.53e5; uninduced reporter light, run 1, well a = 17665; call = inactive
sqd (squid) #2 → induced reporter light, run 1, well a = 1.80e5; induced reporter light, run 1, well b = 1.98e5; control promoter light, run 1, well a = 3.13e5; control promoter light, run 1, well b = 2.78e5; uninduced reporter light, run 1, well a = 13235; call = inactive
CG17404 → induced reporter light, run 1, well a = 67785; induced reporter light, run 1, well b = 79660; control promoter light, run 1, well a = 80510; control promoter light, run 1, well b = 65435; uninduced reporter light, run 1, well a = 4965; call = inactive

2 entries from above, set out differently:
target gene | reagent no. | induced reporter light, run 1, well a | induced reporter light, run 1, well b | control promoter light, run 1, well a | control promoter light, run 1, well b | uninduced reporter light, run 1, well a | call
GABA-B-R1 (metabotropic GABA-B receptor subtype 1) | 1 | – | – | – | – | – | inactive
CG1316 | 1 | 67145 | 1.06e5 | 1.07e5 | 1.04e5 | 5038 | inactive
